# Laboratory results as given in article PMC6010280.
# Sequences of proteins named here, by UniProt entry; tags and fusion partners are left off. A change or cut given only in a name is not applied to a line headed by its entry. Residues count along the entry.
# UniProt P32755: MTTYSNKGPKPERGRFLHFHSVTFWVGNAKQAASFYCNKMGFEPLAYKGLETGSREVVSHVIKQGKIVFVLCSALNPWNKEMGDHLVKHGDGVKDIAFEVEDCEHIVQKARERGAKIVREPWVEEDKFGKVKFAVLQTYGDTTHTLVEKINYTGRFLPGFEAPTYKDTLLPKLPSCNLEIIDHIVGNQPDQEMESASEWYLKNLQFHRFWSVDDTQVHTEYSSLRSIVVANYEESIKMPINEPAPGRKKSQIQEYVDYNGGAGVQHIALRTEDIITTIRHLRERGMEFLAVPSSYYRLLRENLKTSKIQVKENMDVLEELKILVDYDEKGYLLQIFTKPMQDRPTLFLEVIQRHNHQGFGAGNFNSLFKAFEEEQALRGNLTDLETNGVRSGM
# UniProt Q63396: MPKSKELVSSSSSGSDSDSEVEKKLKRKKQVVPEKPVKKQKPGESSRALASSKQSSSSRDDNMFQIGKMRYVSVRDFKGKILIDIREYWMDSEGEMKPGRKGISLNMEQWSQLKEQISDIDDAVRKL
# UniProt Q07936: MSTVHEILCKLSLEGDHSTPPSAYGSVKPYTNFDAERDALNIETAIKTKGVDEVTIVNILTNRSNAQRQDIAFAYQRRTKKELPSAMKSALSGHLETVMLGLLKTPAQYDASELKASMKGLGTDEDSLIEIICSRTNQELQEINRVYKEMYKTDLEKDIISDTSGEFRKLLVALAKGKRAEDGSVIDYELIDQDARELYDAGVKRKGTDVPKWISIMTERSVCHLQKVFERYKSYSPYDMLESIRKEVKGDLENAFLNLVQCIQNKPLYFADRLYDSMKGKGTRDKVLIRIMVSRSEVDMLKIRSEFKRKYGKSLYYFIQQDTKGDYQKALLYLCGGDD
# UniProt P43138: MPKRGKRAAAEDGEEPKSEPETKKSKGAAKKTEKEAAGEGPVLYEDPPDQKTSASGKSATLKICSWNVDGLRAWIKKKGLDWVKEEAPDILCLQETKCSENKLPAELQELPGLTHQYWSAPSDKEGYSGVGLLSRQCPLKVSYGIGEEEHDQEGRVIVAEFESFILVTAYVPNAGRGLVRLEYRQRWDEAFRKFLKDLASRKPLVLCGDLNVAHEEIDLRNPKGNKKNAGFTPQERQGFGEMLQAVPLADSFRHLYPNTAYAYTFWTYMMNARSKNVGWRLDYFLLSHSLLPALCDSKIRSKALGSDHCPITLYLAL
# UniProt P07896: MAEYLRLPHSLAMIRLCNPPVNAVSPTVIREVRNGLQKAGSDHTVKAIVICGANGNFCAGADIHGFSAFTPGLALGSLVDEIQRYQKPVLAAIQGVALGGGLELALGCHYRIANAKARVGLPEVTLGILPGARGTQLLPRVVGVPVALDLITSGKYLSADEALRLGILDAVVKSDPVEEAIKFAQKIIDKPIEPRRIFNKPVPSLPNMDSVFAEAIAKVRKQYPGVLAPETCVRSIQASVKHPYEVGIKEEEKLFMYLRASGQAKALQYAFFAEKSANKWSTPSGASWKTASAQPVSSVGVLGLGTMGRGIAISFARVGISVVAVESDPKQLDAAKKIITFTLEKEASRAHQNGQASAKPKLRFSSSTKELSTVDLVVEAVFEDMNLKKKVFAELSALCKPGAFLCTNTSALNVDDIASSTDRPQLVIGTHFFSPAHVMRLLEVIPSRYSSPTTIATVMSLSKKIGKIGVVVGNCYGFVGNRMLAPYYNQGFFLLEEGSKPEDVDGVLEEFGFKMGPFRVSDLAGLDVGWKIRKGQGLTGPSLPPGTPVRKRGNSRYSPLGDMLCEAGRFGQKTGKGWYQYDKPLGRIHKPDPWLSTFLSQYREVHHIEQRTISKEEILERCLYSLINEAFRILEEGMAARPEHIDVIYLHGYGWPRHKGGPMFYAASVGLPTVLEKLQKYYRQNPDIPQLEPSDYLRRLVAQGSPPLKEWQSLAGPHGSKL
# UniProt Q9EQH1: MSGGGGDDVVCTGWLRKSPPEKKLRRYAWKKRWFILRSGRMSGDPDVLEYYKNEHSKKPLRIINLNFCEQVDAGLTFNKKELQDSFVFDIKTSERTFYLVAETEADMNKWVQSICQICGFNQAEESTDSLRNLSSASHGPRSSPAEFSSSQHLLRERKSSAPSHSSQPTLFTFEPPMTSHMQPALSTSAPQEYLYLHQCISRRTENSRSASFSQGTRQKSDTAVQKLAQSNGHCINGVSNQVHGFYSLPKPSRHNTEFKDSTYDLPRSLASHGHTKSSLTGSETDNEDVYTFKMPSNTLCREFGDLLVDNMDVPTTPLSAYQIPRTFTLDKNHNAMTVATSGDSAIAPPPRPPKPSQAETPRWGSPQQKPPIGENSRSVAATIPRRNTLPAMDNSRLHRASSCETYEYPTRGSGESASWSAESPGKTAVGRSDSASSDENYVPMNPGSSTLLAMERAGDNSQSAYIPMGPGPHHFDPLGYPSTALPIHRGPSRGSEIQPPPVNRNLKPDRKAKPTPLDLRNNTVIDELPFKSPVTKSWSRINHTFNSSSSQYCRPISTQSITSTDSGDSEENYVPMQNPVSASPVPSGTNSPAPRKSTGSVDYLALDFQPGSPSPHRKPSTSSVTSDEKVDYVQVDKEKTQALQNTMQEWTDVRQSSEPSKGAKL
# UniProt P14659: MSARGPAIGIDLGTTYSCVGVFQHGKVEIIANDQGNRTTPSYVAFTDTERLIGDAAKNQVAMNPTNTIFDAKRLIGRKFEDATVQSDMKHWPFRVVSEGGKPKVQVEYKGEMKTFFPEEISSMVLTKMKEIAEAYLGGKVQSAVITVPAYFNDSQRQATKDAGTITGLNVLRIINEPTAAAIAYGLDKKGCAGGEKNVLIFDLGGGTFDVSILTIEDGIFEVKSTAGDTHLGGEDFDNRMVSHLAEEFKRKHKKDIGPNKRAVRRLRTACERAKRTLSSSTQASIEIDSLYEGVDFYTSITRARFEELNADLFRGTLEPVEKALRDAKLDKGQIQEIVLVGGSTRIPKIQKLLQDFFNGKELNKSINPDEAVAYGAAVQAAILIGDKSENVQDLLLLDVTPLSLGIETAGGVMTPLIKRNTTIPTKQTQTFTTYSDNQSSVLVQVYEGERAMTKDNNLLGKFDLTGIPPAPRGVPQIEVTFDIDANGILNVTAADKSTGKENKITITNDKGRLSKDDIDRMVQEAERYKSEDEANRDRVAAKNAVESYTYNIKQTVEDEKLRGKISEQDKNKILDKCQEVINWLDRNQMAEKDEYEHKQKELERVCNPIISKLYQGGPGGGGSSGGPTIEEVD
# UniProt Q9JJ54: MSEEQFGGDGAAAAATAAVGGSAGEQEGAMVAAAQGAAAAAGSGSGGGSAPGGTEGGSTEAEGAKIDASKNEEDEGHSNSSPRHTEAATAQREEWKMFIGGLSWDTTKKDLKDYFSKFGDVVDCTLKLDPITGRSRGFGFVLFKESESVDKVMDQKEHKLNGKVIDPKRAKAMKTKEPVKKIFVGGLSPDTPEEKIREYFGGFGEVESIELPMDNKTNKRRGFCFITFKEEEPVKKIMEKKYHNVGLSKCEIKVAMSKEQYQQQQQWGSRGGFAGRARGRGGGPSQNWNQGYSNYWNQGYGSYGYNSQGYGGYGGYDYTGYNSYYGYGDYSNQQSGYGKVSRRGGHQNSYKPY
# UniProt P47245: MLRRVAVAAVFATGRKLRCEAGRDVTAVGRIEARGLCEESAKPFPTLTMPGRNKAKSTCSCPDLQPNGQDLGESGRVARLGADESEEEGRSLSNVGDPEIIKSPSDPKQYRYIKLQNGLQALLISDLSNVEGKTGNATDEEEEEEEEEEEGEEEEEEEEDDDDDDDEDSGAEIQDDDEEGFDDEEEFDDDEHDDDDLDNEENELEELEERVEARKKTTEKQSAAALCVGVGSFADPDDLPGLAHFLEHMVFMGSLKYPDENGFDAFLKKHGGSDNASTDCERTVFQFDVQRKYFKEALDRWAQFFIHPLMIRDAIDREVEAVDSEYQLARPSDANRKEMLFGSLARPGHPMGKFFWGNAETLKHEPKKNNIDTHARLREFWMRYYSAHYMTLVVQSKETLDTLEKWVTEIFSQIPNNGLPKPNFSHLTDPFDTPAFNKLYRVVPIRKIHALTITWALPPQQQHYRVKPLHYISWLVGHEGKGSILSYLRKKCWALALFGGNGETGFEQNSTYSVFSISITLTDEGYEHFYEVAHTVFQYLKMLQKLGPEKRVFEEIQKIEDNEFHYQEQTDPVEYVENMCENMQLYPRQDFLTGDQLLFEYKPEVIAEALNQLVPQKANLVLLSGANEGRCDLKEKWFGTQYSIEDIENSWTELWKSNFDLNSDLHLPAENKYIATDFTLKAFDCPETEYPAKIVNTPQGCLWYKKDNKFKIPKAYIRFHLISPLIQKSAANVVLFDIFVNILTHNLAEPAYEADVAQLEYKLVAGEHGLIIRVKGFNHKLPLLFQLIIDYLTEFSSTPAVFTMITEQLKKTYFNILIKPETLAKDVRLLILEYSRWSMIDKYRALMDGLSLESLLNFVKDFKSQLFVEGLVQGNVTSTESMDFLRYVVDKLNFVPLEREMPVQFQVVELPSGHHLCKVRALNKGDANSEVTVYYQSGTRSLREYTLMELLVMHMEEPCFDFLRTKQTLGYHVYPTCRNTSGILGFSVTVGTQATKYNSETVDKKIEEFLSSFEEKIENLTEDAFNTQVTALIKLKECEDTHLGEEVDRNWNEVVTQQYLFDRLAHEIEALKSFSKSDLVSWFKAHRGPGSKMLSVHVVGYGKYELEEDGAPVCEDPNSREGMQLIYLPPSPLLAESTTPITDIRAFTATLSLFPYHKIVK
# UniProt P62961: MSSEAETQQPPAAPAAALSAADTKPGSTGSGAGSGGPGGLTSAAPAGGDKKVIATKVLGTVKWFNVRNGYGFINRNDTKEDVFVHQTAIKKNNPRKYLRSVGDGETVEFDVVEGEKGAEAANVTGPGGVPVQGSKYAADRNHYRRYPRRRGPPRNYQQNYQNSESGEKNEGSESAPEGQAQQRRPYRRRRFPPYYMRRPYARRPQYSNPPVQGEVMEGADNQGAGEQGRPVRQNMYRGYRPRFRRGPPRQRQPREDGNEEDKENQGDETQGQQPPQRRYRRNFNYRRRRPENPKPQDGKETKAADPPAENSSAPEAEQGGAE
# UniProt P04785, residues 20-509: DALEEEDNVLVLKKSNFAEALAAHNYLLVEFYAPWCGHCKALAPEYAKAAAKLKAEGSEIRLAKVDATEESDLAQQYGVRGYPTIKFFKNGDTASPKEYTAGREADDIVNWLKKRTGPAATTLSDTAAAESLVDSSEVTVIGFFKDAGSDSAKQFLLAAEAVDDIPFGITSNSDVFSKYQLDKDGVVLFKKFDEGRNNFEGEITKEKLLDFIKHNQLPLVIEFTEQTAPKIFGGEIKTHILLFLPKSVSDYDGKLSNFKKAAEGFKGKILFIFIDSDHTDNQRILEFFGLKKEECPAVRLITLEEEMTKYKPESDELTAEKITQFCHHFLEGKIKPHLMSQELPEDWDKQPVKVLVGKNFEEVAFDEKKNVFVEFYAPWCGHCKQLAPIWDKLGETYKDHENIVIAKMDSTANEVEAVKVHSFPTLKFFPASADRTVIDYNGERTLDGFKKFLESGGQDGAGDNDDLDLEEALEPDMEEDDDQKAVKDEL
# UniProt P18298: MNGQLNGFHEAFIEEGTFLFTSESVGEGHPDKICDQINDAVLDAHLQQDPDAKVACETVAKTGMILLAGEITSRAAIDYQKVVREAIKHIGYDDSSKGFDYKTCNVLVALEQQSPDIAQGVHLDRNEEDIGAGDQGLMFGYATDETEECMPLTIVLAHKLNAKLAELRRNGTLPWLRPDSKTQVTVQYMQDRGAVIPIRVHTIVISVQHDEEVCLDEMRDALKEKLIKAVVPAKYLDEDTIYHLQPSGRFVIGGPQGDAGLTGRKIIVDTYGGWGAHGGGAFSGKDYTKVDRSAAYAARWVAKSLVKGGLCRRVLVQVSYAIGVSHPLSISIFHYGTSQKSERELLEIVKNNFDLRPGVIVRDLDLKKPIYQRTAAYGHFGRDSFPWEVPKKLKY
# UniProt Q6AXN8: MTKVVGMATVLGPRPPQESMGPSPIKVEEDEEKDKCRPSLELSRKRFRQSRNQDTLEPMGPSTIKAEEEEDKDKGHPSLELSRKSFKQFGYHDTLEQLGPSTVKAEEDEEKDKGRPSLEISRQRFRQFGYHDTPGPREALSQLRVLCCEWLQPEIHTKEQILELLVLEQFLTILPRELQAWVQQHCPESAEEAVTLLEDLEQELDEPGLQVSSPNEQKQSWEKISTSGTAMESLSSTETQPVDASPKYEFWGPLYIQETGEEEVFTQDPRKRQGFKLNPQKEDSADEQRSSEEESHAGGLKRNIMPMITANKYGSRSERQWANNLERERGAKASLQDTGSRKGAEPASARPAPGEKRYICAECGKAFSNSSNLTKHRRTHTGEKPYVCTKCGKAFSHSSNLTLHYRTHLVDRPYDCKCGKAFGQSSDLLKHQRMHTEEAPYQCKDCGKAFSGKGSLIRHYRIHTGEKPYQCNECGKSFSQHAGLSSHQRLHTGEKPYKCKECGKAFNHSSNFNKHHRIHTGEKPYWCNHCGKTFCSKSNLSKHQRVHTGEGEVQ
# These are yes or no findings as the source states them, for the method shown. Binding seen in cells or lysates may run through a third protein. A yes stands for co-enrichment or nearness to the bait. Other partners may have been found. For part of these data: No binding means not detected with the bait.
# Experiments:
# [1] = molecular target: T1, intein-BHMT (betaine homocysteine S-methyltransferase) (R. norvegicus) (UniProt O09171); experiment: affinity purification with mass spectrometry; same columns; all eluates of the intein-BHMT column compared with those of the bead-only and intein columns; only the target purified
# T1 sequence: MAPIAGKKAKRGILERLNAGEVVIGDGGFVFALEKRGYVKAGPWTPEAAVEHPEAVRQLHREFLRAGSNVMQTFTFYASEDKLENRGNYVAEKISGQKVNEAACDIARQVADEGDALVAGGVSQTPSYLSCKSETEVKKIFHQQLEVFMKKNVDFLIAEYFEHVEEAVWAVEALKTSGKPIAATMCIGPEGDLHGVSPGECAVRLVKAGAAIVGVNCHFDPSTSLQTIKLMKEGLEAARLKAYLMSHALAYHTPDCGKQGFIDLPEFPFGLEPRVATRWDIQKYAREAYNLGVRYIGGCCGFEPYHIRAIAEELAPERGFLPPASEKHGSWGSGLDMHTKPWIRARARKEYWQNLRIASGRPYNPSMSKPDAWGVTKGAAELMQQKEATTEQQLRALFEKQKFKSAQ
# [2] = molecular target: T1, intein-BHMT (betaine homocysteine S-methyltransferase) (R. norvegicus); experiment: affinity purification with mass spectrometry; intein-BHMT held on chitin beads; rat liver cytosol first passed over a bead-only and an intein column; 10 mM sodium phosphate pH 7.4, 5 mM EDTA, 0.1 mM EGTA, 4°C; bound proteins eluted with a 0-500 mM NaCl gradient (peak at 50-100 mM NaCl); LC-MS/MS; only the target purified
# [3] = molecular target: T1, intein-BHMT (betaine homocysteine S-methyltransferase) (R. norvegicus); experiment: affinity purification with mass spectrometry; same intein-BHMT chitin column after the salt gradient; proteins recovered together with BHMT upon intein excision with 30 mM 2-mercaptoethanol, 48 h at 23°C (strong interactors); LC-MS/MS; only the target purified
Substance,binding [2],binding [3],further results
4-hydroxyphenylpyruvic acid dioxygenase (HPD) (liver cytosol) (from UniProt P32755 1-393),–,–,binding [1]: no binding
14-3-3 protein epsilon (Ywhae) (from UniProt P62260 1-255),binds,–,–
Ac2-048 (from UniProt Q7TPK7),–,binds,–
Activated RNA polymerase II transcriptional coactivator p15 (from UniProt Q63396 1-127),binds,–,–
Adenylate cyclase type 10 (from UniProt Q9Z286 1-1608),binds,–,–
AlF-C1 (from UniProt O88311),binds,–,–
Annexin A2 (from UniProt Q07936 1-339),–,binds,–
Casein kinase 2 α2 (from UniProt B4F7A9 1-350),binds,–,–
Chloride intracellular channel protein 2 (from UniProt Q5M883 1-245),–,binds,–
Collagen alpha-1(II) chain (from UniProt P05539 26-1419),–,binds,–
Cytoplasmic dynein 1 intermediate chain 1 (from UniProt Q63100 1-643),–,binds,–
DNA damage-binding protein 1 (from UniProt Q9ESW0 1-1140),binds,–,–
DNA ligase (entry Q5U2M4) (rat (endogenous in liver)),–,binds,–
"DNA-(apurinic or apyrimidinic site) lyase, APEX1 (from UniProt P43138 1-317)",binds,–,–
"Dynein heavy chain 12, axonemal (from UniProt Q923J6 1-3092)",–,binds,–
ECHP Peroxisomal bifunctional enzyme (from UniProt P07896 1-722),binds,–,–
Eukaryotic translation initiation factor 1A (from UniProt Q6VV72 1-144),binds,–,–
Eukaryotic translation initiation factor 5 (from UniProt Q07205 1-429),binds,–,–
GRB2-associated-binding protein 2 (from UniProt Q9EQH1 1-665),–,binds,–
HSP7C Heat shock cognate 71 kDa protein (from UniProt P63018 1-646),binds,–,–
HSP72 Heat shock-related 70 kDa protein 2 (from UniProt P14659 1-633),binds,–,–
Heterogeneous nuclear ribonucleoprotein A1 (from UniProt P04256 1-320),binds,–,–
Heterogeneous nuclear ribonucleoprotein A3 (from UniProt Q6URK4 1-379),binds,–,–
Heterogeneous nuclear ribonucleoprotein D0 (from UniProt Q9JJ54 1-353),binds,–,–
Heterogeneous nuclear ribonucleoproteins A2/B1 (from UniProt A7VJC2 1-353),binds,–,–
"High mobility group box 3, Hmgb3 (from UniProt B0BN99)",binds,–,–
High mobility group protein B1 (HMGB-1) (from UniProt P63159 1-215),binds,–,–

Substance,binding [2],binding [3],further results
Homeobox protein (entry Q9QYQ9) (rat (endogenous in liver)),binds,–,–
Hyaluronan synthase 1 (from UniProt Q8CH93),–,binds,–
"Importin subunit alpha, Karyopherin alpha 4 (from UniProt Q56R17 1-521)",binds,–,–
"Keratin, type II cytoskeletal 4 (from UniProt Q6IG00 1-536)",–,binds,–
LOC304239 protein (entry B2GV26) (rat (endogenous in liver)),–,binds,–
LOC304239 protein (entry Q4V8M7) (rat (endogenous in liver)),–,binds,–
Microspherule protein 1 (from UniProt Q5BJR5 1-462),–,binds,–
Nardilysin (from UniProt P47245),binds,–,–
Nuclease-sensitive element-binding protein 1 (from UniProt P62961 1-322),binds,–,–
Nucleolin (from UniProt P13383 1-713),binds,–,–
Nucleophosmin (from UniProt P13084 1-292),binds,–,–
Polr3a protein (from UniProt Q5RK26),–,binds,–
Protein disulfide-isomerase (from UniProt P04785 20-509),binds,–,–
Quinone oxidoreductase-like protein 2 (from UniProt B0BNC9),binds,–,–
RAT Protein kinase C epsilon type (from UniProt P09216 1-737),binds,–,–
"RCG58555, isoform CRA_a (rat (endogenous in liver))",–,binds,–
"S-adenosylmethionine synthase isoform type-1, MATα1 (from UniProt P13444 1-397)",binds,–,–
"S-adenosylmethionine synthase isoform type-2, MATα2 (from UniProt P18298 1-395)",binds,–,–
"S-adenosylmethionine synthase, MATα2 (entry Q6P688) (from UniProt P18298 1-395)",binds,–,–
Serine/threonine-protein kinase 24 (from UniProt B0LT89 1-431),binds,–,–
Serine/threonine-protein kinase WNK1 (from UniProt Q9JIH7 1-2126),binds,–,–
Serine/threonine-protein kinase WNK4 (from UniProt Q7TPK6 1-1222),binds,–,–
Sodium myo-inositol transporter (rat (endogenous in liver)),–,binds,–
Trypsin V-A (from UniProt P32821),–,binds,–
Zinc finger and SCAN domain containing 21 (from UniProt Q6AXN8 1-554),–,binds,–
Zinc finger protein (entry Q9QYU6) (rat (endogenous in liver)),–,binds,–
transthyretin (liver cytosol) (from UniProt P02767 21-147),–,–,binding [1]: no binding
